Drawing on patent US20100104568A1 (published 2010), this text covers binding for four molecules.

The assay deals with cynomolgus RANK-L, full length, membrane-bound, expressed on HEK293T cells (cynomolgus monkey). Nature of the assay: FACS.

No constants are given. Whether binding was seen depends on the method and setting. Some binding calls cover weakened binding; strength is not graded here.

B1: RANKL15 (VHH)
VHH: EVQLVESGGGLVQAGGSLRLSCAAAGGTFRNYVMGWFRQAPGKEREFVTAISTGGSWTGYVDSVKDRFTISRDNTKNTVYLQMASLKPEDTAVYYCAATTPATTYLPRSERQYDYWGQGTQVTVSS
Regarding B1, the binding result is given as “binds”.

B2: RANKL9 (VHH)
VHH: EVQLVESGGGLVQAGGSLRLTCAASGRTFRSYAMGWFRQAPGKEREFVAAINYSGGSTNYADSVKGRFTISRDNAKNTLYLQMNSLEPEDTAVYYCAAGSGYASLSYYSTERAYTYWGQGTQVTVSS
B2: the binding entry is given as “binds”.

B3: RANKL6 (VHH)
VHH: EVQLVESGGGLMQTGGSLRLSCAASGVTYSYYTASWFRQAPGKEREFVAAISPSGNTYYADSVKGRFTISRDNGKHTMYLQMNSLNPEDTAVYFCAIRATDSIYYASSYRHWGQGTQVTVSS
B3: the binding entry is “binds”.

B4: RANKL18 (VHH)
VHH: EVQLVESGGGLVQAGGSLRLSCAASGRTFSRSAMGWFRQAPGKEREFVGFITGSGGTTYYGESVKGRFTISRDNAQNPVYLQMNSLKPEDTAVYYCGVYRRTYISSTYSESSEYDYWGQGTQVTVSS
As for B4, the binding result is given as “binds”.
